Each structure is given as a SMILES string. This is one part of the list.

These results are taken from paper PMC12040169 (PLOS Biology, 2025).

The experiment deals with T1, CTL2-GFP (C. trachomatis L2/434/Bu, GFP-expressing).
T1 construct: L2/434/Bu, GFP-expressing
The arrangement: species or system HeLa; Intracellular C. trachomatis growth in HeLa cells, bulk GFP fluorescence relative to DMSO. The note with it: bulk GFP, single well; 28.5 h, 10 µM; inhibitor.
`CC(=O)c1cccc(NC(=O)C2CCCN(S(=O)(=O)c3ccc(Cl)cc3)C2)c1` (stereo not drawn) [CBK266847]: the “% of control remaining” value is listed as 152.856%. As for `O=C1C(=CNCc2ccco2)C(=O)c2ccccc21` [CBK262688], the figure is 101.041%; as for `O=[N+]([O-])c1ccccc1S(=O)(=O)N1CCN(Cc2cccnc2)CC1` [CBK264168G], 67.4999%; as for `Cc1cccc(N(C)S(=O)(=O)c2ccc(N3CCCNCC3)c3ccccc23)c1C` [CBK004430C], 51.2431%. As for `CCCn1c(SC(C)C(=O)c2cc(C)n(-c3ccc(Cl)cc3)c2C)n[nH]c1=O` (stereo not drawn) [CBK295595], the figure is 88.9219%; as for `C[C@H]1[C@@H]2[C@@H](O)C([C@H](C)C(=O)N3CCCC3)CC[C@@]2(C)CC[C@@H]1NC(=O)C1CC1` (stereo partly drawn) [CBK289447], 137.323%; as for `CC(=O)Nc1ccc(CNC(=O)CN(C)Cc2nc(C3CC3)no2)cc1` [CBK306695], 89.4475%.

Regarding `N#Cc1ccc(-c2cnc(N)c(-c3ccc(NC(=O)CCN4CCCCC4)cc3)n2)cc1` [CBK116418], the “% of control remaining” value amounted to 97.969%. With `COc1cccc(C(=O)N2CCN(C(=O)c3cccc(F)c3)CC2)c1OC` [CBK263316], the “% of control remaining” value was 123.68%.

`NCCCCCCNc1ncnc2c1ncn2[C@H]1C[C@@H](O)[C@@H](CO)O1` [CBK201260]: the “% of control remaining” value is 101.761%. As for `Cc1cc(O)nc(C(C)N2CCOC(C(C)(C)C)C2)n1` (stereo not drawn) [CBK304097], the figure is 101.966%; as for `Cc1cc(Oc2ccc(N(C)C)cc2)cc(C2CCCNC2)n1` (stereo not drawn) [CBK283442], 144.533%. Take `COC(=O)CCN(Cc1nnc(C2CC2)o1)C(C)C` [CBK304470]: the “% of control remaining” value was 158.194%. As to `c1ccc(-n2cc(-c3cncn3CCCN3CCCCC3)cn2)cc1` [CBK281465], the “% of control remaining” value was 129.317%. As for `CC(=O)N1CCc2c([nH]c3c(C)cccc23)C12CCN(CCOc1ccccc1)C2` (stereo not drawn) [CBK039646], the figure is 100%. As for `COc1cccc(NC(=O)N[C@H]2CCN3C(=O)[C@@H](Cc4ccccc4)NC(=O)[C@H]23)c1` [CBK289230], the figure is 107.343%; as for `CS(=O)(=O)c1ccc(-c2cccc(COC3CCN(C(=O)Cc4c[nH]cn4)CC3)c2)cc1` [CBK149515], 98.5779%. For `O=C(NCCCN1CCOCC1)c1ccncc1` [CBK264561F], the “% of control remaining” value is 100%.

For the molecule `COc1ccc(CN2CCN(c3nccnc3NS(C)(=O)=O)CC2)cc1` [CBK084273], the “% of control remaining” value came to 97.3332%. As for `Cn1cc(CN2CCC(CNc3ccccn3)C2)cn1` (stereo not drawn) [CBK304705], the figure is 119.609%; as for `COCCn1c(CN2CCCC(C)C2)nc2c1c(=O)n(C)c(=O)n2C` (stereo not drawn) [CBK306063], 134.319%; as for `O=[N+]([O-])c1ccc(S(=O)(=O)CC(CN2CCCC2)N2CCCC2)cc1` (stereo not drawn) [CBK266991], 91.4825%. As for `CC(=O)c1ccc(-c2nc(-c3ccc(Cl)cc3)cnc2N)cc1` [CBK064097], the figure is 126.283%; as for `Cc1c(C(=O)O)sc(S(=O)(=O)N2CCN(C(=O)c3ccc(C(C)(C)C)cc3)CC2)c1C(=O)O` [CBK297119], 156.228%; as for `Cc1cc(C)cc(N(C(C)C(=O)Nc2ccc(C(F)(F)F)cc2)S(C)(=O)=O)c1` (stereo not drawn) [CBK268834], 115.594%. The same measure for `COc1ccc(Cl)cc1Nc1nc(N)nc(CC(=O)CSc2ccc(C)cc2)n1` [CBK265200]: 135.702%; for `CC(Oc1ccc(C#N)cc1)C(=O)NCC(C)(C)N1CCOCC1` (stereo not drawn) [CBK304066]: 114.453%; for `CCN1CCCC1CNC(=O)c1cc(Br)cnc1N1CCOCC1` (stereo not drawn) [CBK076213]: 100%. With `CC1CCc2nn(CCNC(=O)Cc3ccc(F)cc3)c(=O)cc2C1` (stereo not drawn) [CBK284485], the “% of control remaining” value is 133.005%.

On to `Cc1c(C(=O)N(C)C2CCNCC2)nnn1-c1ccc2ncccc2c1` [CBK306500C], for which the “% of control remaining” value is given as 139.08%.

For the molecule `COc1ccc(CNc2cnc3ccccc3c2)c(O)c1` [CBK293951], the “% of control remaining” value is 134.674%. With `C/C(O)=C1/C(=O)N(c2nc3ccccc3s2)N=C1CC(=O)O` [CBK265828], the “% of control remaining” value is given as 141.475%. As for `CC(NC(=O)Cn1ccnc1-c1ccccc1)c1ccccn1` (stereo not drawn) [CBK281885], the figure is 127.089%. As for `O=C1N=C2C=CC=CN2C(=O)C1Cc1ccccc1` (stereo not drawn) [CBK287874], the figure is 99.5988%; as for `CCCC/C=C/c1cnc2[nH]c(=O)n([C@H](CO)C(C)C)c2n1` [CBK064970], 148.634%; as for `CCCC/C=C/c1cnc2[nH]c(=O)n(C3CCOCC3)c2n1` [CBK064253], 113.439%. As for `O=C(NCc1cccs1)NC1CCCc2c1cnn2CCO` (stereo not drawn) [CBK305658], the figure is 125.998%; as for `NS(=O)(=O)c1ccc(CCNC(=O)/C=C/c2ccccc2Cl)cc1` [CBK264379], 138.128%.

For the molecule `O=C(OCc1ccccc1)Sc1nnc(-c2ccc([N+](=O)[O-])cc2)o1` [CBK264504], the “% of control remaining” value worked out at 100%. The same measure for `COc1ccc(NC(=O)CC(C(=O)O)N2CCCCC2)cc1` (stereo not drawn) [CBK267115]: 173.122%; for `CC(=O)c1ccc(-c2nccnc2N2CCCC2CO)s1` (stereo not drawn) [CBK037483]: 110.276%; for `Cn1c(C(=O)Nc2ccc(Cn3cncn3)cc2)cc2cc(F)ccc21` [CBK281584]: 112.048%. Consider `O=C(NCCn1nc(-c2cccs2)oc1=O)C1CCCC1` [CBK282345], for which the “% of control remaining” value is on record as 99.9973%. As for `CCNC(=O)Nc1ccc2ccc(-c3ccc(SC)cc3)nc2n1` [CBK070656], the figure is 84.8119%. The same measure for `CCNC(=O)Nc1ccc(-c2ccc(S(C)(=O)=O)cc2)c2ccccc12` [CBK083728]: 94.9113%. In the case of `N#C/C(=C\c1cccn1-c1ccc(S(N)(=O)=O)cc1)c1nc2ccccc2[nH]1` [CBK266167], the “% of control remaining” value is recorded as 101.78%.

`COc1ccc(F)cc1-c1cccc(CC2(C(=O)NCCc3ccccc3)CCOCC2)c1` [CBK285562]: the “% of control remaining” value was determined as 122.453%. Consider `NC(=O)c1c(NC(=O)c2ccc3ncsc3c2)sc2c1CCCC2` [CBK287369], for which the “% of control remaining” value stood at 113.86%. For `CCc1nccn1CC(=O)N(C)C1CCCN(Cc2ccccc2F)C1` (stereo not drawn) [CBK306928], the “% of control remaining” value was 129.036%.

As to `COc1ccc(C(=O)N2CCC3(CCCN(C(=O)c4ccc5occc5c4)C3)C2)cc1OC` (stereo not drawn) [CBK131665], the “% of control remaining” value amounted to 105.368%. The same measure for `Cc1ccc(/C=C/C(=O)O)cc1S(=O)(=O)N1CCCc2ccccc21` [CBK264425]: 100%; for `O=[N+]([O-])c1ccccc1S(=O)(=O)N1CCN(c2ccnc3cc(Cl)ccc23)CC1` [CBK267271]: 107.828%. With `Cc1cc(C(=O)NC(Cn2ccnc2)c2ccccc2)cc(=O)[nH]1` (stereo not drawn) [CBK306818], the “% of control remaining” value came out at 114.464%. Consider `COc1ccccc1NC(=O)N1CCC2(CC1)NC(=O)Cc1cc3ccccc3cc12` [CBK047284], for which the “% of control remaining” value came to 100.047%. The same measure for `CN1CCN(S(=O)(=O)c2ccc3c(c2)oc(=O)c2cc(S(=O)(=O)N4CCN(C)CC4)ccc23)CC1` [CBK267206]: 156.098%; for `Cc1nn(C)c(C)c1CCC(=O)OCc1cc(=O)n2ccccc2n1` [CBK305690]: 115.843%; for `CC(C)(Oc1ccc(Cl)cc1)C(=O)NCCc1ccc(S(N)(=O)=O)cc1` [CBK265628]: 102.507%. As for `O=C(NCCc1c[nH]c2ccccc12)C(=O)Nc1ccncc1` [CBK287754], the figure is 106.876%; as for `O=C(O)c1cccc(NC(=S)NC(=O)c2ccc(-c3ccc(Br)cc3)o2)c1` [CBK265014], 91.7898%. The same measure for `Nc1nc2ccccc2n1/N=C/c1ccc([N+](=O)[O-])cc1` [CBK262239]: 100%; for `Cc1csc(Sc2cc(N3CCCC3)ncn2)n1` [CBK093745]: 92.4128%. `NC(=O)C1CCN(C(=O)Cc2csc(COc3ccc(Cl)cc3)n2)CC1` [CBK304519]: the “% of control remaining” value worked out at 119.737%. The same measure for `CC(=O)c1cccc(NC(=O)Cn2nc(C)ccc2=O)c1` [CBK304653]: 140.475%. The same measure for `Oc1c(CN2CCN(Cc3ccc4cccnc4c3O)CC2)ccc2cccnc12` [CBK261994]: 87.5927%; for `Cc1ccc2c(CC(=O)N(C)CCN(C)C)c(C)[nH]c2c1C` [CBK282157]: 135.648%. Regarding `O=C(N/N=C/c1ccc(O)cc1)c1c[nH]c2ccccc12` [CBK262193], the “% of control remaining” value was found to be 136.448%.

Take `COc1cccc(/C=C2\SC(=S)N(CC(=O)NNC(=O)c3ccccc3O)C2=O)c1` [CBK262202]: the “% of control remaining” value stood at 119.456%. The same measure for `COc1ccc(C(=O)Nc2ccc(CC(=O)O)cc2)cc1` [CBK269736]: 114.487%; for `Cc1cc2nnc(SCC(=O)Nc3ccc4c(c3)OCO4)n2c2ccccc12` [CBK265926]: 104.734%; for `Nc1cc2ccccc2c(-c2ccncc2)n1` [CBK085708]: 146.563%. As for `Cc1cnc(CNC(=O)N(CCC#N)C2CCCCC2)cn1` [CBK156352], the figure is 124.957%; as for `O=C1Nc2c(cnn2-c2ccc(F)cc2)C2=NCCN12` [CBK284351], 111.075%. The same measure for `CC(=O)Nc1ccc(CNc2ccc(Cl)cc2)cc1` [CBK012799]: 106.273%. With `Cc1cc(NS(=O)(=O)c2cccc3nonc23)n(C)n1` [CBK067247], the “% of control remaining” value came out at 87.4498%. As for `CC(NC(=O)/C=C\C(=O)O)c1ccc2c(c1)OCO2` (stereo not drawn) [CBK286996], the “% of control remaining” value was determined as 120.393%.

`OCCOc1ccnc2ccccc12` [CBK113395]: the “% of control remaining” value was found to be 110.825%.

In the case of `COc1cc(OC)c2c(c1)OCC1CON(C)C21` (stereo not drawn) [CBK011446], the “% of control remaining” value is reported as 128.426%. The same measure for `CC(=O)N1CC[C@H]2NC(=O)CNC(=O)C3(CCCC[C@H]2C1)CCN(C(=O)c1n[nH]c2c1CCC2)CC3` [CBK292012]: 129.732%.
